No constants are given. Whether binding was seen depends on the method and setting. Non-standard residues stand in square brackets, D forms with d. No end group written: not given here. Lys(Me3) = C[N+](C)(C)CCCC[C@H](N)C(=O)O
Tests used:
[1] = molecular target: PHD finger of PHF23 (aa 338-393), W362A mutant (human) (UniProt Q9BUL5); experiment: other fluorescence titration + NMR titration; PHF23PHD mutants with H3K4me3 peptide, measured by tryptophan fluorescence or by NMR titration (Fig. 2e); which method for which mutant is marked only in the figure; both purified
[2] = molecular target: PHD finger of PHF23 (aa 338-393), M353V mutant (human) (UniProt Q9BUL5); experiment: as above

Amino acid sequences for entries named in this document (tags omitted). A change or cut given only in a name is not applied to a line headed by its entry. Chains listed by the source or under a name are the forms on record and can include a tag or linker.
PHD finger of PHF23 (aa 338-393), W362A mutant (Q9BUL5, form named): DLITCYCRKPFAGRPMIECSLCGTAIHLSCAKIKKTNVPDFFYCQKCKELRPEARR
PHD finger of PHF23 (aa 338-393), M353V mutant (Q9BUL5, form named): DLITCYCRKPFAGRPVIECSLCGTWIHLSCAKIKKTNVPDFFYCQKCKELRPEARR

binding [1]: no binding
binding [2]: no binding
B1: histone H3K4me3 peptide (aa 1-12 of H3K4me3) (peptide, UniProt P68431 2-13, looked up)
peptide: ART[Lys(Me3)]QTARKSTG
notes: histone H3, residues 1-12, trimethylated on Lys4; source: synthetic peptide (SynPeptide)
